Some of the results follow.
Key:
Test in all cases: log2 fold change, soluble protein after heating vs DMSO (PISA); higher = thermal stabilisation; K562 cells, 10 uM, 30 min; active = over 0.2 and 3.5 SD of the protein, either way, in both replicates (recomputed)
[1] = compound: Cc1ccc(NC(=O)c2ccc(CN3CC[C@H](N(C)C)C3)c(C(F)(F)F)c2)cc1Nc1nccc(-c2cncnc2)n1 [bafetinib]
In short: (§1)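 Quantification of soluble protein used TMTpro 16plex LC-MS/MS, with channel sums equalised. Samples were the supernatant after 21,000xg for 90 min of pooled aliquots from K562 cells (2×10^6 cells/mL) treated with 10 μM compound for 30 min, heated for 3 min over 48°C-58°C, and extracted in PBS with 0.5% NP-40 at 4°C. Values, from duplicates, describe thermal stability against control samples on a log2 fold-change scale.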

Protein sequences, listed by entry. Tags and fused reporters are not part of them. Lines headed by an entry give the natural chain unless they say otherwise; changes in a name come on top.
UniProt O75369, whole entry, looked up: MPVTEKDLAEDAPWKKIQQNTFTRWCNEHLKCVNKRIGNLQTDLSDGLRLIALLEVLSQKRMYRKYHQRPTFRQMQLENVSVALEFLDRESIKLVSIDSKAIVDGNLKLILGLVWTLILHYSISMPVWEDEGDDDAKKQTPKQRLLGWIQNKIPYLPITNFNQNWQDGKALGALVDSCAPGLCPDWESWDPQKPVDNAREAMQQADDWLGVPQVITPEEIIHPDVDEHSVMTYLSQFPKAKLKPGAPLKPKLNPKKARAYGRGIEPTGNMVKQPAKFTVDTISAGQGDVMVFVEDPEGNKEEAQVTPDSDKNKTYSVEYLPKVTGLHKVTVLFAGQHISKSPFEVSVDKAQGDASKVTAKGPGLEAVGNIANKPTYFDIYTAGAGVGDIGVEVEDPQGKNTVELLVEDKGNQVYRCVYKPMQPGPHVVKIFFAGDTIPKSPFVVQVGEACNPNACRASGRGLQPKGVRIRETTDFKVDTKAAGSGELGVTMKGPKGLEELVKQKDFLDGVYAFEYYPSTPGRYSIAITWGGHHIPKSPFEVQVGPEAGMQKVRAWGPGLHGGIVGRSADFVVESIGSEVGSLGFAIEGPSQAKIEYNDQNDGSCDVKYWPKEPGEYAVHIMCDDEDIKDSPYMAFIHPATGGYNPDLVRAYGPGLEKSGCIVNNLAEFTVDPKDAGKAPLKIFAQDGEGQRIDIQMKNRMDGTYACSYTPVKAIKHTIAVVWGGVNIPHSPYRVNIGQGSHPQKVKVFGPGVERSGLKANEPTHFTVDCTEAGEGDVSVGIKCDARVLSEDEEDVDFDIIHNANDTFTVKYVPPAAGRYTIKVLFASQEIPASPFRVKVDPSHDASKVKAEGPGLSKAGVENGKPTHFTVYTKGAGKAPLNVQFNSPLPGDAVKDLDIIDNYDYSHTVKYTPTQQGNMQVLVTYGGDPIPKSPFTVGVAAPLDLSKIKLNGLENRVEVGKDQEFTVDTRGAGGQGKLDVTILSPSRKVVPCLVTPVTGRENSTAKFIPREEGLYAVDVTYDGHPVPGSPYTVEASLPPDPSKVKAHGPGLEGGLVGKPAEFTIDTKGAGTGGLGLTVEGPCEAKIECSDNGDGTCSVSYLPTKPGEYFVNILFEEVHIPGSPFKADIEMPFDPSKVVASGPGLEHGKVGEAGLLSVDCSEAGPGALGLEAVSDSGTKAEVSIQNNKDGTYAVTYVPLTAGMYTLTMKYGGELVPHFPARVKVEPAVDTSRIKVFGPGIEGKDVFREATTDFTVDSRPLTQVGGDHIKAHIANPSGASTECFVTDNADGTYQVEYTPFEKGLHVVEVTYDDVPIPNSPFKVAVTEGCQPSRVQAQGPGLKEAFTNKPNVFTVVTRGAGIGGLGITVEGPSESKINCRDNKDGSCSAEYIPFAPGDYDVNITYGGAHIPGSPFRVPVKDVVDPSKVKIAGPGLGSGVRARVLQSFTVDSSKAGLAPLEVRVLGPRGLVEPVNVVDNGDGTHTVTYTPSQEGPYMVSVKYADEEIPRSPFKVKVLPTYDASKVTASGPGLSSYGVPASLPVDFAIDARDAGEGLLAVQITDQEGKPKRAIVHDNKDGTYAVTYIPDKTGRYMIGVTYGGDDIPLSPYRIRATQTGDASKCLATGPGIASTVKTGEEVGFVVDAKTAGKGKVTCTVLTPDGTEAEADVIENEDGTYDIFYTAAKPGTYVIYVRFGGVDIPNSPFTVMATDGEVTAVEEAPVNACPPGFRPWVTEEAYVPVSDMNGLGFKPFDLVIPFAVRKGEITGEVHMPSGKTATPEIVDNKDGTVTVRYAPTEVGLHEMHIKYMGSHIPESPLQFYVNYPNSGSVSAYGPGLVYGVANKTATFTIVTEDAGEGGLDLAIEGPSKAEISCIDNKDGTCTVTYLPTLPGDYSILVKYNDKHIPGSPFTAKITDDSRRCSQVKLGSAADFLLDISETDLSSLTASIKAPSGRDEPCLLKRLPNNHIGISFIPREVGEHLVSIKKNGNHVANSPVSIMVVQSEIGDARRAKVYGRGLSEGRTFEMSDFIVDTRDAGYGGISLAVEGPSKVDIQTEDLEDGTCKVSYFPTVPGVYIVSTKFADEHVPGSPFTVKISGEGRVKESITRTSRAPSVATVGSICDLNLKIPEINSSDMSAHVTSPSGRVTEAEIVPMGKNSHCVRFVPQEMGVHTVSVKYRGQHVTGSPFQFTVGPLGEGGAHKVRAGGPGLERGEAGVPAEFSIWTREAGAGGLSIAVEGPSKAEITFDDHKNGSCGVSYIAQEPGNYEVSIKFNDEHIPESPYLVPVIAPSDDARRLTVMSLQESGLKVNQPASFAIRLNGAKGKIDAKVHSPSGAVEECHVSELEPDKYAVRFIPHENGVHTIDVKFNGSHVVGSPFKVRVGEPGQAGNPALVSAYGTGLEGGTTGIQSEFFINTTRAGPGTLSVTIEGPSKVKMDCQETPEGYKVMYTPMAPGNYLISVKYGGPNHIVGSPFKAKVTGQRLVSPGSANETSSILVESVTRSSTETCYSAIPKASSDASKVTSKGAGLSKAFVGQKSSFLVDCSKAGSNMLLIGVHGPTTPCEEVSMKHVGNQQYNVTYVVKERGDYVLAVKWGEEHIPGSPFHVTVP
UniProt Q13643: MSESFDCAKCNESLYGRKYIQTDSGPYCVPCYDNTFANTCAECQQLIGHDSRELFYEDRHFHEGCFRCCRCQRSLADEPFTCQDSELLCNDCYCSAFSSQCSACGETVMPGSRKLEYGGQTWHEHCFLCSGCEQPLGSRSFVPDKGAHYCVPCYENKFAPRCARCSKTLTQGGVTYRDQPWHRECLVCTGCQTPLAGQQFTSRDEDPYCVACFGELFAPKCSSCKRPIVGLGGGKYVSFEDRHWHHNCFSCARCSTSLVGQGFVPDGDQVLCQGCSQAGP
UniProt Q9NVI1: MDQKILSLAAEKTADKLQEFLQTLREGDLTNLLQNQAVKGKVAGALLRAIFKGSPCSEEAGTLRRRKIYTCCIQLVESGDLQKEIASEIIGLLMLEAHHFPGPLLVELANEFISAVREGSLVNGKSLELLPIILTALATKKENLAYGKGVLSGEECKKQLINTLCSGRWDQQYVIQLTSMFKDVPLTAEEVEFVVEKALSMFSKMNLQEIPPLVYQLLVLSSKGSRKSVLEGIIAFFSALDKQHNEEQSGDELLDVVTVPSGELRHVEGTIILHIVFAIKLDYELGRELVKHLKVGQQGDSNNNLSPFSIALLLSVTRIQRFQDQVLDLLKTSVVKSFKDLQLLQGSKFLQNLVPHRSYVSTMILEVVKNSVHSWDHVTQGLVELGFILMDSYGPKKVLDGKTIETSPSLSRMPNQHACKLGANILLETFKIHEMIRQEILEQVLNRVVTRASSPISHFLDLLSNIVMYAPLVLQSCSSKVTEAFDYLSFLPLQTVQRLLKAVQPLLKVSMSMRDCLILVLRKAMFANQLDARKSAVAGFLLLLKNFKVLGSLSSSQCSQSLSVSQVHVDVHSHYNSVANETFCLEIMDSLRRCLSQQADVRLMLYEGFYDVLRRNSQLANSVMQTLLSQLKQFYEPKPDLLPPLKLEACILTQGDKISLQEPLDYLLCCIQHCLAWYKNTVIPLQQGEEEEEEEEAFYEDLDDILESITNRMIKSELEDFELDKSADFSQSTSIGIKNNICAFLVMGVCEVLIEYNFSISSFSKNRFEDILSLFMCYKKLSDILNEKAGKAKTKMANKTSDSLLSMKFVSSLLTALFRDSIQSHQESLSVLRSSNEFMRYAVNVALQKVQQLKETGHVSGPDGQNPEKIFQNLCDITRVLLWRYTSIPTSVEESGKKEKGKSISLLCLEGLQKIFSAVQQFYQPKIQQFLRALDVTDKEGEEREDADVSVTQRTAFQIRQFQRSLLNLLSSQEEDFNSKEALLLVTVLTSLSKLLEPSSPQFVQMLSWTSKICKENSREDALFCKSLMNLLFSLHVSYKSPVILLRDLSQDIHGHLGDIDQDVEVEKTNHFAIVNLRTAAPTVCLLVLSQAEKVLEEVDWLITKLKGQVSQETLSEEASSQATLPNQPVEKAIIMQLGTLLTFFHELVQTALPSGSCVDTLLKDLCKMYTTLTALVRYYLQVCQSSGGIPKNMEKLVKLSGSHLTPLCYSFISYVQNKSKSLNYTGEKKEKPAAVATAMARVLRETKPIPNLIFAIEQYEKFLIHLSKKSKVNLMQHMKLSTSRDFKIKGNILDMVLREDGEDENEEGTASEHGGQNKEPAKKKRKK
UniProt P09038, whole entry, looked up: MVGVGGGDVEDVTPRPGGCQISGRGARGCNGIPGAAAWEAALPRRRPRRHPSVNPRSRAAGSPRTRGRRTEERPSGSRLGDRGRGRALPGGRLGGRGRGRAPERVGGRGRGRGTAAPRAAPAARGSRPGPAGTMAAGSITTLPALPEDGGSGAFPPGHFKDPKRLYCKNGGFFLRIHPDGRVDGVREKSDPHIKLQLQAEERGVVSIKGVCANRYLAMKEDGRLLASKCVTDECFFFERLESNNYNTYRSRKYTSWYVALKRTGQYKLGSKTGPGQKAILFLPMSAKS
UniProt Q8NB91: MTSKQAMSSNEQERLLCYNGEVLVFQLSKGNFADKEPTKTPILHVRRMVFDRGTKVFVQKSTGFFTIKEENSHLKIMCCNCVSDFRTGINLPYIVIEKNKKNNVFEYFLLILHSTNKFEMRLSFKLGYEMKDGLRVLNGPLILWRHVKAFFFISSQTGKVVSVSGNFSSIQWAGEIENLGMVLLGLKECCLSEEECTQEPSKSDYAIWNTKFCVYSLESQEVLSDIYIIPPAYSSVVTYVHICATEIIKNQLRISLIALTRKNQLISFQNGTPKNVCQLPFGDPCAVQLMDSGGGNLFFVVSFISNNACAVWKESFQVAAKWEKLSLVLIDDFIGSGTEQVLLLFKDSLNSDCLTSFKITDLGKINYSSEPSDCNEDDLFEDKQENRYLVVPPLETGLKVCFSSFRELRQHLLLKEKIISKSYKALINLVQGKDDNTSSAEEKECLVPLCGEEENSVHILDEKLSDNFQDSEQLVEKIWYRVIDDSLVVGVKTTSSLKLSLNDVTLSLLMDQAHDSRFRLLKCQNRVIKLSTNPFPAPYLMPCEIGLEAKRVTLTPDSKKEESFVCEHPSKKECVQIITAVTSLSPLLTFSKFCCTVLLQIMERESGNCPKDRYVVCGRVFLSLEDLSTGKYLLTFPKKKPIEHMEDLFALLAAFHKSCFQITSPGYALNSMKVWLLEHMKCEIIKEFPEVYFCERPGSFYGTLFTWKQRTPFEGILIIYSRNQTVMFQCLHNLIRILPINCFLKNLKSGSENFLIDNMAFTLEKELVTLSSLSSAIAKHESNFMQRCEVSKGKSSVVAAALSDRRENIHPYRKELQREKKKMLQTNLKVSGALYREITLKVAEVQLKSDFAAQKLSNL
UniProt P23142: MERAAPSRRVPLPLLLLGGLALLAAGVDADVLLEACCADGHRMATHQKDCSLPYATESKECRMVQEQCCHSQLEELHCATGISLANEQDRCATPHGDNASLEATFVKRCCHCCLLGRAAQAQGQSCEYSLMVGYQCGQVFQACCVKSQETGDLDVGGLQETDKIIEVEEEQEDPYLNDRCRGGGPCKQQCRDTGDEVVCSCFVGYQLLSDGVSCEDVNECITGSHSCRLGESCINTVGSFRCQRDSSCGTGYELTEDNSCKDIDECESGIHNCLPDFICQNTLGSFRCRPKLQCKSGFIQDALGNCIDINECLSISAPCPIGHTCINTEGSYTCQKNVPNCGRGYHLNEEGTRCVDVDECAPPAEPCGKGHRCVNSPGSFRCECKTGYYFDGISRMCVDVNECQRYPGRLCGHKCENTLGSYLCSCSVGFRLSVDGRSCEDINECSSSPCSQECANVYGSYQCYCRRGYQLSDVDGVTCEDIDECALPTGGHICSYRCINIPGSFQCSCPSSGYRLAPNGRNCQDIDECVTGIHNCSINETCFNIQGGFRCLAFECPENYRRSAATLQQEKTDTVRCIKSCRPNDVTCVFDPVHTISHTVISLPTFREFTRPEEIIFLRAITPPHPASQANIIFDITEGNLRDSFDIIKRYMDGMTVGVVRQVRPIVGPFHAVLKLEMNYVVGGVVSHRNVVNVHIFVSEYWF
UniProt Q9H479: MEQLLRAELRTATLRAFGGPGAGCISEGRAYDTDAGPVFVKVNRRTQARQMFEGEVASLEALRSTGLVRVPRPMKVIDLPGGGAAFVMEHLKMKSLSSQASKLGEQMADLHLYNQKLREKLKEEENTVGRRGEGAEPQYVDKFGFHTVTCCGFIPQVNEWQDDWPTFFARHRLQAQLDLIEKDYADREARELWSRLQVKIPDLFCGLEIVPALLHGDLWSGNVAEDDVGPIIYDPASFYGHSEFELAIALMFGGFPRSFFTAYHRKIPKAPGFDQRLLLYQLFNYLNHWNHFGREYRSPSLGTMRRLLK

[2] = compound: Cc1cccc(CC(=O)N2CCc3c2ccc(-c2cn(C)c4ncnc(N)c24)c3F)n1
In short: as §1

[3] = compound: Cc1cn(-c2cc(NC(=O)c3ccc(C)c(Nc4nccc(-c5cccnc5)n4)c3)cc(C(F)(F)F)c2)cn1 [nilotinib]
In short: as §1

[4] = compound: Cc1nc(Nc2n[nH]c3c2CN(C(=O)N[C@H](CN(C)C)c2ccccc2)C3(C)C)c2sccc2n1
In short: as §1

[5] = compound: Cc1nc(Nc2ncc(C(=O)Nc3c(C)cccc3Cl)s2)cc(N2CCN(CCO)CC2)n1 [dasatinib]
In short: as §1

[6] = compound: Cc1ncc(-c2ccnc(Nc3ccc(S(C)(=O)=O)cc3)n2)n1C(C)C
In short: as §1

[7] = compound: Cn1cc(-c2ccc3c(c2)CCN3C(=O)Cc2cccc(C(F)(F)F)c2)c2c(N)ncnc21
In short: as §1

[8] = compound: Cn1cc(-c2ccc3nnc(C(F)(F)c4ccc5ncccc5c4)n3n2)cn1
In short: as §1

[9] = compound: Cn1cncc1[C@@](N)(c1ccc(Cl)cc1)c1ccc2c(c1)c(-c1cccc(Cl)c1)cc(=O)n2C [tipifarnib]
In short: as §1

[10] = compound: FC(F)(F)c1ccc(/C=C/c2nc(COc3ccc(CCCCn4ccnn4)cc3)co2)cc1 [mubritinib]
In short: as §1

[11] = compound: NC(=O)Nc1cc(-c2cccc(F)c2)sc1C(=O)N[C@H]1CCCNC1
In short: as §1

[12] = compound: NC(=O)c1cnc(N[C@@H]2CCCC[C@@H]2N)nc1Nc1cccc(-n2nccn2)c1
In short: as §1

[13] = compound: NC1(c2ccc(-c3nc4ccn5c(=O)[nH]nc5c4cc3-c3ccccc3)cc2)CCC1
In short: as §1

[14] = compound: NCC(=O)Nc1ccc(-n2nc(C(F)(F)F)cc2-c2ccc3c(ccc4ccccc43)c2)cc1
In short: as §1

[15] = compound: Nc1ccccc1NC(=O)c1ccc(CNC(=O)OCc2cccnc2)cc1 [entinostat]
In short: as §1

[16] = compound: O=C(CCCCCCC(=O)Nc1ccccc1)NO [vorinostat]
In short: as §1

[17] = compound: O=C(CCCCCCNC(=O)c1cnc(N(c2ccccc2)c2ccccc2Cl)nc1)NO [citarinostat]
In short: as §1

[18] = compound: O=C(O)c1ccc2c(c1)nc(Nc1cccc(Cl)c1)c1ccncc12 [silmitasertib]
In short: as §1

[19] = compound: O=C1NC(=O)C(c2cnc3ccccn23)=C1c1cn2c3c(cc(F)cc13)CN(C(=O)N1CCCCC1)CC2
In short: as §1

[20] = compound: c1cc(OCCN2CCCCC2)cc(-c2n[nH]c3ccc(-c4nnc[nH]4)cc23)c1
In short: as §1

Measured: log2 fold change

FBXO42 (UniProt Q6P3S6)
inactive: [1] -0.014 | [2] -0.006 | [3] -0.006 | [4] 0.028 | [5] -0.036 | [6] -0.026 | [7] 0.137 | [8] -0.007 | [9] 0.006 | [10] 0.059 | [11] -0.048 | [12] -0.087 | [13] -0.176 | [14] 0.061 | [15] -0.028 | [16] -0.03 | [17] -0.001 | [18] 0.006 | [19] 0.013 | [20] -0.026

FLNB isoform 8 (UniProt O75369)
inactive: [1] -0.025 | [2] 0.003 | [3] 0.004 | [4] -0.033 | [5] -0.069 | [6] 0.001 | [7] -0.008 | [8] -0.005 | [9] -0.031 | [10] 0.091 | [11] -0.043 | [12] -0.049 | [13] -0.058 | [14] -0.039 | [15] 0.014 | [16] 0.012 | [17] 0.01 | [18] 0.036 | [19] -0.032 | [20] -0.024

FLAD1 (UniProt Q8NFF5)
inactive: [1] -0.087 | [2] 0.007 | [3] -0.024 | [4] 0.058 | [5] -0.101 | [6] 0.1 | [7] 0.072 | [8] 0.004 | [9] 0.058 | [10] 0.054 | [11] -0.175 | [12] -0.01 | [13] -0.081 | [14] -0.046 | [15] -0.134 | [16] -0.059 | [17] 0.038 | [18] 0.011 | [19] -0.002 | [20] 0.036

FLOT1 (UniProt O75955)
inactive: [1] 0.079 | [2] 0.077 | [3] -0.057 | [4] -0.064 | [5] -0.013 | [6] 0.009 | [7] -0.25 | [8] -0.005 | [9] 0.125 | [10] -0.105 | [11] -0.054 | [12] -0.078 | [13] -0.165 | [14] -0.065 | [15] 0.105 | [16] -0.047 | [17] -0.009 | [18] 0.1 | [19] 0.1 | [20] -0.145

FHL3 (UniProt Q13643)
inactive: [1] -0.058 | [2] -0.089 | [3] 0.003 | [4] 0.019 | [5] 0.049 | [6] -0.017 | [7] 0.01 | [8] -0.014 | [9] -0.018 | [10] 0.004 | [11] -0.022 | [12] -0.002 | [13] 0.001 | [14] -0.004 | [15] -0.032 | [16] -0.042 | [17] 0.002 | [18] -0.011 | [19] -0.057 | [20] -0.025

FBXO4 (UniProt Q9UKT5)
inactive: [1] -0.033 | [2] 0.066 | [3] -0.041 | [4] -0.04 | [5] -0.15 | [6] -0.019 | [7] 0.089 | [8] -0.003 | [9] -0.142 | [10] 0.113 | [11] 0.039 | [12] -0.043 | [13] -0.137 | [14] -0.045 | [15] -0.086 | [16] -0.017 | [17] 0.021 | [18] -0.004 | [19] -0.121 | [20] -0.027

FLNC (UniProt Q14315)
inactive: [1] -0.024 | [2] 0.018 | [3] 0 | [4] -0.012 | [5] -0.056 | [6] 0.012 | [7] -0.012 | [8] 0 | [9] -0.053 | [10] 0.062 | [11] -0.038 | [12] -0.06 | [13] -0.079 | [14] -0.058 | [15] 0.015 | [16] 0.008 | [17] 0.025 | [18] 0.04 | [19] -0.003 | [20] -0.036

FANCI (UniProt Q9NVI1)
active: [13] -0.281
inactive: [1] -0.043 | [2] 0.041 | [3] -0.13 | [4] 0.113 | [5] -0.118 | [6] -0.085 | [7] 0.075 | [8] 0.098 | [9] -0.027 | [10] 0.086 | [11] 0.139 | [12] -0.069 | [14] -0.08 | [15] 0.083 | [16] 0.112 | [17] 0.099 | [18] -0.089 | [19] 0.033 | [20] -0.045

Looked up one by one from the entries so far (two):
FBXO4 (UniProt Q9UKT5)
inactive: [1] -0.033 | [2] 0.066 | [3] -0.041 | [4] -0.04 | [5] -0.15 | [6] -0.019 | [7] 0.089 | [8] -0.003 | [9] -0.142 | [10] 0.113 | [11] 0.039 | [12] -0.043 | [13] -0.137 | [14] -0.045 | [15] -0.086 | [16] -0.017 | [17] 0.021 | [18] -0.004 | [19] -0.121 | [20] -0.027

FHL3 (UniProt Q13643)
inactive: [1] -0.058 | [2] -0.089 | [3] 0.003 | [4] 0.019 | [5] 0.049 | [6] -0.017 | [7] 0.01 | [8] -0.014 | [9] -0.018 | [10] 0.004 | [11] -0.022 | [12] -0.002 | [13] 0.001 | [14] -0.004 | [15] -0.032 | [16] -0.042 | [17] 0.002 | [18] -0.011 | [19] -0.057 | [20] -0.025

Going on with the list.

FGF2 (UniProt P09038)
inactive: [1] -0.048 | [2] 0.143 | [3] 0.029 | [4] 0.029 | [5] 0.047 | [6] 0.007 | [7] -0.066 | [8] -0.01 | [9] 0.101 | [10] -0.028 | [11] -0.007 | [12] 0.062 | [13] 0.022 | [14] 0.016 | [15] -0.02 | [16] 0.075 | [17] -0.015 | [18] 0.015 | [19] -0.045 | [20] 0.035

FN1 isoform 1 (UniProt P02751)
inactive: [1] -0.11 | [2] -0.043 | [3] 0.102 | [4] 0.073 | [5] 0.008 | [6] 0.189 | [7] 0.176 | [8] 0.023 | [9] 0.096 | [10] -0.083 | [11] -0.029 | [12] -0.029 | [13] 0.008 | [14] 0.038 | [15] -0.014 | [16] 0.217 | [17] -0.035 | [18] 0.088 | [19] 0.095 | [20] 0.066

FLOT2 (UniProt Q14254)
inactive: [1] 0.126 | [2] 0.02 | [3] -0.108 | [4] -0.12 | [5] 0.073 | [6] -0.002 | [7] -0.179 | [8] -0.044 | [9] 0.116 | [10] -0.082 | [11] -0.029 | [12] -0.069 | [13] -0.054 | [14] 0.041 | [15] 0.033 | [16] -0.057 | [17] 0.021 | [18] 0.128 | [19] 0.095 | [20] -0.093

FANCB (UniProt Q8NB91)
inactive: [1] -0.014 | [2] 0.02 | [3] 0.019 | [4] 0.006 | [5] 0.006 | [6] -0.031 | [7] 0.063 | [8] 0.043 | [9] 0.022 | [10] 0.073 | [11] 0.077 | [12] -0.016 | [13] 0.024 | [14] 0.03 | [15] -0.018 | [16] -0.073 | [17] 0.093 | [18] -0.008 | [19] -0.008 | [20] 0.022

FBLN1 (UniProt P23142)
inactive: [1] -0.248 | [2] -0.083 | [3] 0.117 | [4] 0.103 | [5] 0.088 | [6] 0.196 | [7] 0.269 | [8] -0.051 | [9] 0.21 | [10] -0.269 | [11] -0.103 | [12] -0.011 | [13] 0.125 | [14] -0.058 | [15] -0.057 | [16] 0.05 | [17] -0.068 | [18] 0.192 | [19] 0.108 | [20] 0.506

FNTA (UniProt P49354)
inactive: [1] -0.024 | [2] -0.009 | [3] -0.002 | [4] 0.104 | [5] 0.165 | [6] 0.019 | [7] 0.036 | [8] 0.091 | [10] 0.013 | [11] 0.009 | [12] 0.061 | [13] 0.028 | [14] 0 | [15] -0.02 | [16] 0.004 | [17] -0.02 | [18] 0.016 | [19] -0.001
active: [9] 0.429 | [20] 0.696

FN3K (UniProt Q9H479)
inactive: [1] 0.013 | [2] 0.041 | [3] 0.02 | [4] 0.042 | [5] 0.046 | [6] -0.009 | [7] 0.011 | [8] 0.018 | [9] -0.038 | [10] 0.024 | [11] 0.139 | [12] 0.003 | [13] 0.022 | [14] 0.02 | [15] 0.02 | [16] -0.01 | [17] 0.008 | [18] -0.026 | [19] -0.046 | [20] 0.028
